PubChem BioAssay AID1487 (National Center for Advancing Translational Sciences (NCATS), 2009)
The list shows a part of the results. These are further read-outs of the screen, such as a control signal, another cell line or another target. No call is given for them. The list favours compounds with an active or inconclusive main result. The note in brackets gives the kind of curve behind each potency; many fits are weak.

Assay: qHTS Assay for Modulators of Lamin A Splicing
Conditions: HeLa LMNA splicing GFP/RFP minigene ratio, 48 h
Procedure, shortened: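 S3 HeLa cells stably expressing lamin A-EGFP splicing minigene plus DsRed2, 600 cells/well, 48 h compound exposure at 37C. Laser-scanning cytometry; analysed as GFP (500-530 nm)/RFP (575-640 nm) total intensity ratio; 0.5% DMSO vehicle.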

[1] = measured here: RFP viability control channel
[2] = measured here: GFP splicing reporter channel

| Compound | AC50 [1] | AC50 [2] |
| --- | --- | --- |
| Cc1ccc(S(=O)(=O)Nc2ccccc2CNc2c(C)n(C)n(-c3ccccc3)c2=O)cc1 | 35.5 µM [rising, single point] | – |
| O=C(CCl)Nc1cc(-c2ccccc2)nn1-c1ccccc1 | 35.5 µM [falling, single point] | 35.5 µM [falling, single point] |
| CC(C)c1ccccc1OCC(=O)NN1C(=O)c2ccccc2C1=O | 0.708 µM [falling, full curve, poor fit] | – |
| COc1ccc2cc(CN(CCO)C(=O)c3ccc(Br)cc3)c(=O)[nH]c2c1 | 35.5 µM [rising, single point] | – |
| Cc1cc(O)c(C(C)C)cc1NC(=O)c1ccc(Cl)cc1 | 6.31 µM [rising, partial curve, poor fit] | – |
| S=C(NCc1ccco1)Nc1ccc(Cl)c(Cl)c1 | 15.8 µM [rising, partial curve] | 2 µM [rising, partial curve] |
| Cc1ccc2nc(Cl)nc(-c3ccccc3)c2c1 | 22.4 µM [falling, single point] | 35.5 µM [falling, single point] |
| O=C(CCSCc1ccccc1Cl)N1CCN(c2ccccn2)CC1 | 14.1 µM [rising, single point] | 11.2 µM [rising, partial curve, poor fit] |
| COc1ccc2c(c1OC)C(=O)OC2 | – | 0.00316 µM [rising, full curve, poor fit] |
| Cc1ccccc1Nc1ncnc2c1cnn2-c1ccccc1 | 12.6 µM [rising, partial curve] | – |
| O=C(Nc1nc(-c2cccs2)cs1)c1ccc(S(=O)(=O)N2CCCC2)cc1 | 7.94 µM [rising, partial curve] | – |
| O=C(c1ccc2ccccc2n1)N1CCN(c2ccccc2O)CC1 | – | 3.98 µM [falling, single point] |
| CS(=O)c1nc(-c2ccc(Br)cc2)cc(-c2ccccc2)c1C#N (stereo unspecified) | 35.5 µM [falling, single point] | 35.5 µM [falling, single point] |
| Cc1sc2ncnc(NCC3COc4ccccc4O3)c2c1C (stereo unspecified) | 0.708 µM [rising, full curve] | 0.398 µM [rising, full curve] |
| O=C1CSc2ccc(C(=O)Nc3cccc(S(=O)(=O)Nc4ccc(Br)cc4)c3)cc2N1 | 22.4 µM [falling, partial curve, poor fit] | 15.8 µM [falling, single point] |
| COc1ccc2c(c1)O[C@H](c1ccc3c(c1)OCO3)[C@@H](OC(=O)N[C@H]1CCCc3ccccc31)C2=O | 10 µM [rising, partial curve] | – |
| Cc1ccc(-n2[nH]c(C)c(/C=N/n3c(C)nc4ccccc4c3=O)c2=O)cc1 | 17.8 µM [rising, partial curve] | 0.398 µM [rising, partial curve, poor fit] |
| C/C(=N\NC(=O)Cc1csc(N2CCOCC2)n1)c1ccc(Cl)c(Cl)c1 | 20 µM [falling, partial curve, poor fit] | 35.5 µM [falling, single point] |
| Cc1ccc(-c2csc(NC(=O)C3CC(=O)N(Cc4ccco4)C3)n2)cc1 (stereo unspecified) | 14.1 µM [rising, single point] | – |
| COc1ccc(NC(=O)c2oc3ccc(S(=O)(=O)N4CCOCC4)cc3c2C)c(OC)c1 | – | 35.5 µM [falling, partial curve, poor fit] |
| CC(Oc1ccccc1)C(=O)Nc1ccc(C(=O)OCc2cc(=O)n3nc(C(C)C)sc3n2)cc1 (stereo unspecified) | 1.78 µM [rising, full curve] | – |
| Cc1c(C(=O)N2CCc3ccccc3C2)oc2ccc(S(=O)(=O)N3CC(C)CC(C)C3)cc12 (stereo unspecified) | 3.16 µM [rising, full curve] | – |
| CCOC(=O)c1c(C)[nH]c2c1-c1ccccc1C(=O)C2=O | 3.16 µM [falling, full curve] | 2.82 µM [falling, full curve] |
| Cc1nc2c(C(=O)N3CCCCC3)cnn2c(C)c1Cc1ccccc1F | 14.1 µM [rising, single point] | – |
| Clc1ccccc1Sc1ccc(-c2ccccn2)s1 | 8.91 µM [falling, partial curve, poor fit] | – |
| CCN(Cc1ccncc1)S(=O)(=O)c1ccc(C(C)=O)cc1 | – | 0.708 µM [rising, full curve, poor fit] |
| COc1ccc(OC)c2c(C)cc(N3CCN(C(=O)c4ccc(F)cc4)CC3)nc12 | 11.2 µM [rising, partial curve] | 6.31 µM [rising, partial curve] |

Fetched one by one from the list above, two records:

| Compound | AC50 [1] | AC50 [2] |
| --- | --- | --- |
| Cc1ccc(-n2[nH]c(C)c(/C=N/n3c(C)nc4ccccc4c3=O)c2=O)cc1 | 17.8 µM [rising, partial curve] | 0.398 µM [rising, partial curve, poor fit] |
| O=C(Nc1nc(-c2cccs2)cs1)c1ccc(S(=O)(=O)N2CCCC2)cc1 | 7.94 µM [rising, partial curve] | – |

(listing goes on)

| Compound | AC50 [1] | AC50 [2] |
| --- | --- | --- |
| COc1ccc(CC(=O)NNc2ncnc3c2cnn3C)cc1OC | 11.2 µM [rising, single point] | 11.2 µM [rising, partial curve] |
| O=c1c2ccccc2nc2n1C1(CCCCC1)Cc1ccccc1-2 | 17.8 µM [rising, single point] | – |
| COc1ccc(-c2ccc(NS(=O)(=O)c3ccc(NC(C)=O)cc3)cc2)nn1 | 0.158 µM [rising, partial curve] | – |
| COc1ccc2c(c1)O[C@@H](c1cccc(C(F)(F)F)c1)[C@H](O)C2=O | 22.4 µM [rising, partial curve] | – |
| O=C(CSc1nnc(-c2ccccn2)n1Cc1ccco1)c1ccc(-c2ccccc2)cc1 | 15.8 µM [rising, single point] | – |
| Cc1cc(OCC(=O)NC(C)C)cc(C)c1Br | 35.5 µM [rising, single point] | 35.5 µM [rising, single point] |
| Cc1c(Cl)cccc1-n1ncc(C(=O)NCCN2CCN(C)CC2)c1C1CCN(C(=O)OC(C)(C)C)CC1 | 0.0112 µM [falling, full curve, poor fit] | 0.0141 µM [falling, full curve, poor fit] |
| CC(=O)O[C@H]1C(=O)[C@@]2(C)C([C@H](OC(=O)c3ccccc3)[C@]3(O)C[C@H](OC(=O)[C@H](O)[C@@H](NC(=O)c4ccccc4)c4ccccc4)C(C)=C1C3(C)C)[C@]1(OC(C)=O)CO[C@@H]1C[C@@H]2O (stereo partly specified) | 0.00178 µM [falling, full curve] | 0.0282 µM [falling, full curve] |
| COc1ccc(C(=O)CC(=O)c2ccc(C(C)(C)C)cc2)cc1 | 0.0708 µM [falling, full curve, poor fit] | 0.00112 µM [falling, full curve, poor fit] |
| CCOC(=O)CCC(=O)N1CCOCCN(C(=O)CCC(=O)OCC)CCOCC1 | 0.00562 µM [falling, full curve, poor fit] | – |
| O=C(Nc1ccc(Cl)cc1)c1cnn2c1NC(c1ccccc1)=CC2c1ccccc1 (stereo unspecified) | 14.1 µM [rising, partial curve] | 12.6 µM [rising, partial curve, poor fit] |
| Oc1c(N=NC(=S)Nc2ccccc2F)c2ccccc2n1Cc1ccc(Cl)cc1 | 12.6 µM [rising, partial curve, poor fit] | 0.0891 µM [rising, full curve, poor fit] |
| O=C1C(N2CCOCC2)=C(n2nnc3ccccc32)C(=O)c2ccccc21 | 35.5 µM [falling, single point] | 35.5 µM [falling, single point] |
| CCOC(=O)c1c(C)oc2c1c(C(c1cccnc1)N1CCOCC1)c(O)c1ccccc12 (stereo unspecified) | 22.4 µM [rising, single point] | 12.6 µM [rising, single point] |
| CCOc1ccc(NC(=S)N2CCN(C/C=C/c3ccccc3)CC2)cc1 | 0.794 µM [falling, full curve, poor fit] | – |
| COC(=O)CSC1=C(C#N)C(c2sccc2C)CC(=O)N1 (stereo unspecified) | 15.8 µM [rising, partial curve] | – |
| O=C(NCc1ccccc1)c1ccc(C(=O)N(C2CCCCC2)C2CCCCC2)cc1 | 12.6 µM [rising, single point] | – |
| CN(C)S(=O)(=O)c1ccc(Cl)c(NC(=O)CN2CCc3ccccc3C2)c1 | – | 0.708 µM [falling, partial curve, poor fit] |
| COc1cc(/C=C/c2ccc3cccc([N+](=O)[O-])c3n2)ccc1OCC(=O)O | 3.16 µM [rising, partial curve, poor fit] | – |
| O=C(Nc1nccs1)c1c(O)c2cccc3c2n(c1=O)CCC3 | 10 µM [rising, partial curve] | – |
| CC(C)(C)N=C1NN=C(c2cc3ccccc3o2)CS1 | 35.5 µM [rising, single point] | – |
| COc1ccc(-c2ccc(SCc3ccccn3)nn2)cc1OC | – | 0.447 µM [rising, partial curve, poor fit] |
| COc1ccc2c(c1)C1(C)CC(C)(C)N2C(=O)N1c1ccccc1 (stereo unspecified) | 20 µM [rising, single point] | 28.2 µM [rising, single point] |
| CC1Sc2n(c3ccccc3[n+]2C)N=C1c1ccccc1 (stereo unspecified) | 11.2 µM [rising, partial curve, poor fit] | – |
| O=C(CSc1nc2ccccc2[nH]1)Nc1nc(-c2ccc(Br)cc2)cs1 | 20 µM [rising, single point] | 7.94 µM [rising, partial curve] |
| COc1ccc(-n2c(COc3ccccc3)nnc2SCC(N)=O)cc1 | 4.47 µM [falling, full curve, poor fit] | 0.708 µM [falling, full curve, poor fit] |
